Where a chain is given by its changes, count along the chain named. No constants are given. Whether binding was seen depends on the method and setting. Some entries that bind do so weakly or less than the wild type.
B1: 22A06-429 (antibody, V domains shown)
VH: QVQLVQSGAEVKKPGASVKVSCKASGYTFISYGMHWVRQAPGQGLEWMGEINPHGGSTSYAQKFQGRVTMTRDTSTSTVYMELSSLRSEDTAVYYCARPSAAYSHYLGIDMWGRGTLVTVSS
VL: DIQMTQSPSSVSASVGDRVTITCRASQGISSWLAWYQQKPGKAPKLLIYAASRLQSGVPSRFSGSGSGTDFTLTISSLQPEDFATYYCQQANVFPLTFGGGTKVEIKR
B2: 22A06-481 (antibody, V domains shown)
VH: B1 VH with I109L, M111I
VL: B1 VL with S31P, A51G, R53S
B3: 22A06-502 (antibody, V domains shown)
VH: B1 VH with M111L
VL: B1 VL with A25T, A34S, R53S, N92H, F94L

The binders below were run against cynomolgus IL-33 (cynomolgus monkey) (assay: MSD-SET (similar procedure), 25 C).
B1 was tested, and the binding was “binds”. For B2, the binding was “binds”. B3 was tested, and the binding was “binds”.
